Results deposited as PubChem BioAssay AID1053208 (Peter MacCallum Cancer Centre, 2014).
Shown is a random part of about 17,000 reagents tested. 788 of all reagents (4.7%) count as active. 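Calls rest on z-score classes alone; an extra cut-off of viability at most 70% of control was not applied to them.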 Reagent sequences are not shown.

Aim: 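Find knock-downs that sensitise mouse osteosarcoma cells to doxorubicin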 (primary screen)
Cells: mouse osteosarcoma cells, early-passage culture from an engineered mouse model of fibroblastic bone tumour
Reagents: siRNA pool against mouse genes, 40 nM
Timing: about 120 h (48 h before drug, then 72 h with drug)
Conditions: doxorubicin 100 nM for 72 h, roughly 30-40% inhibitory dose
Read-out: 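Luminescent ATP signal taken as viability with or without 100 nM doxorubicin for 72 h; mean of two wells set against non-targeting siRNA and turned into robust z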
Scale: viability z-score with doxorubicin and doxorubicin viability vs non-targeting: higher = more viable cells under doxorubicin; viability z-score without drug: higher = more viable cells with knock-down alone; z-score of drug to no-drug ratio: higher = less drug sensitisation by knock-down
Rule for the call: 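a pool counts as active when its viability z-score with doxorubicin is -2 or below and its z-score without drug lies between -2 and 2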

gene | combined z-score class | viability z-score with doxorubicin | viability z-score without drug | z-score of drug to no-drug ratio | doxorubicin viability vs non-targeting | outcome
Hid1 | no change with or without drug | 0.67 | 0.51 | 0.45 | 1 | inactive
Sycp2 | no change with or without drug | -1.57 | 1.18 | -2.25 | 0.8 | inactive
Mycl | no change with or without drug | -1.01 | -0.84 | -0.45 | 0.85 | inactive
Ubxn6 | no change with or without drug | 1.01 | -0.67 | 1.69 | 1.03 | inactive
Hgf | no change with or without drug | 0 | 0.67 | -0.34 | 0.94 | inactive
Asb6 | no change with or without drug | 0.79 | 0.34 | 0.67 | 1.01 | inactive
Npb | low cell count with doxorubicin only | -2.7 | -1.18 | -2.02 | 0.7 | active
Art1 | high cell count with and without drug | 2.7 | 2.19 | 1.24 | 1.18 | inactive
Or5b121 | no change with or without drug | 0 | 1.52 | -0.9 | 0.94 | inactive
Rgs3 | no change with or without drug | -0.22 | -1.18 | 0.79 | 0.92 | inactive
Tmem40 | no change with or without drug | 0.9 | 1.18 | 0.22 | 1.02 | inactive
Agap1 | no change with or without drug | -1.12 | -1.18 | -0.34 | 0.84 | inactive
Srsf1 | low cell count with doxorubicin only | -2.02 | -0.51 | -1.69 | 0.76 | active
Flot1 | no change with or without drug | -0.45 | 0.34 | -0.56 | 0.9 | inactive
Ncln | no change with or without drug | -0.67 | -1.52 | 0.45 | 0.88 | inactive
Fgd2 | no change with or without drug | -0.45 | -0.17 | -0.22 | 0.9 | inactive
Lin28a | no change with or without drug | 0.9 | 0.17 | 0.9 | 1.02 | inactive
Bhlha15 | no change with or without drug | 1.35 | -0.17 | 1.69 | 1.06 | inactive
A930024E05Rik | no change with or without drug | -0.9 | 1.18 | -1.57 | 0.86 | inactive
Sppl2b | no change with or without drug | 0.79 | -0.34 | 1.24 | 1.01 | inactive
D630029K05Rik | no change with or without drug | 0 | 0.17 | 0 | 0.94 | inactive
Tmem150a | no change with or without drug | -1.01 | -0.17 | -0.9 | 0.85 | inactive
Golph3 | no change with or without drug | 1.12 | 1.18 | 0.45 | 1.04 | inactive
Zfp955a | no change with or without drug | 0 | -1.18 | 1.01 | 0.94 | inactive
Fbxl22 | no change with or without drug | 1.12 | 0.34 | 1.01 | 1.04 | inactive
Twf1 | no change with or without drug | -0.45 | -1.85 | 1.01 | 0.9 | inactive
Exog | no change with or without drug | 0 | 0.84 | -0.45 | 0.94 | inactive
Otos | low cell count with doxorubicin only | -2.36 | -1.69 | -1.35 | 0.73 | active
Vps29 | no change with or without drug | 0.56 | 0.84 | 0.11 | 0.99 | inactive
Manf | no change with or without drug | 0.45 | 1.85 | -0.67 | 0.98 | inactive
Proser2 | no change with or without drug | 0.67 | 1.69 | -0.34 | 1 | inactive
Aldh6a1 | no change with or without drug | -0.67 | 0.17 | -0.67 | 0.88 | inactive
Cyyr1 | no change with or without drug | 0.34 | -0.51 | 0.79 | 0.97 | inactive
Rab38 | no change with or without drug | 1.91 | 1.01 | 1.35 | 1.11 | inactive
Cflar | no change with or without drug | -0.11 | 1.18 | -0.79 | 0.93 | inactive
Cdin1 | no change with or without drug | -0.22 | -1.85 | 1.35 | 0.92 | inactive
Hnrnpa1 | no change with or without drug | 1.12 | 0.84 | 0.67 | 1.04 | inactive
Hspa13 | no change with or without drug | 1.01 | 0.67 | 0.67 | 1.03 | inactive
Atxn7 | no change with or without drug | 0.56 | 1.52 | -0.34 | 0.99 | inactive
Ncs1 | no change with or without drug | 0.11 | -0.17 | 0.34 | 0.95 | inactive
St6galnac4 | no change with or without drug | -0.22 | -0.51 | 0.22 | 0.92 | inactive
Defb4 | no change with or without drug | -0.22 | 0.67 | -0.56 | 0.92 | inactive
Rps3a1 | low cell count with and without drug | -7.31 | -6.24 | -5.4 | 0.29 | inactive
H2-Aa | no change with or without drug | 1.12 | 0.51 | 0.9 | 1.04 | inactive
Bysl | low cell count without drug only | -0.67 | -2.7 | 1.46 | 0.88 | inactive
Cfap43 | high without drug; low with doxorubicin | -2.59 | 2.02 | -3.6 | 0.71 | inactive
Vmn1r53 | no change with or without drug | 0 | 0.51 | -0.22 | 0.94 | inactive
Mrps7 | no change with or without drug | 0.22 | -1.85 | 1.8 | 0.96 | inactive
Scg3 | high cell count with and without drug | 2.92 | 3.2 | 0.79 | 1.2 | inactive
Cxcl12 | no change with or without drug | 1.01 | -1.18 | 2.14 | 1.03 | inactive

Active calls, of those listed so far:
gene | combined z-score class | viability z-score with doxorubicin | viability z-score without drug | z-score of drug to no-drug ratio | doxorubicin viability vs non-targeting | outcome
Npb | low cell count with doxorubicin only | -2.7 | -1.18 | -2.02 | 0.7 | active
Srsf1 | low cell count with doxorubicin only | -2.02 | -0.51 | -1.69 | 0.76 | active
Otos | low cell count with doxorubicin only | -2.36 | -1.69 | -1.35 | 0.73 | active
